The match of structure and compound is tentative.

Protein sequences, listed by entry. Tags and fused reporters are not part of them. Residues count along the entry.
UniProt P10721, 26-976 limits assumed: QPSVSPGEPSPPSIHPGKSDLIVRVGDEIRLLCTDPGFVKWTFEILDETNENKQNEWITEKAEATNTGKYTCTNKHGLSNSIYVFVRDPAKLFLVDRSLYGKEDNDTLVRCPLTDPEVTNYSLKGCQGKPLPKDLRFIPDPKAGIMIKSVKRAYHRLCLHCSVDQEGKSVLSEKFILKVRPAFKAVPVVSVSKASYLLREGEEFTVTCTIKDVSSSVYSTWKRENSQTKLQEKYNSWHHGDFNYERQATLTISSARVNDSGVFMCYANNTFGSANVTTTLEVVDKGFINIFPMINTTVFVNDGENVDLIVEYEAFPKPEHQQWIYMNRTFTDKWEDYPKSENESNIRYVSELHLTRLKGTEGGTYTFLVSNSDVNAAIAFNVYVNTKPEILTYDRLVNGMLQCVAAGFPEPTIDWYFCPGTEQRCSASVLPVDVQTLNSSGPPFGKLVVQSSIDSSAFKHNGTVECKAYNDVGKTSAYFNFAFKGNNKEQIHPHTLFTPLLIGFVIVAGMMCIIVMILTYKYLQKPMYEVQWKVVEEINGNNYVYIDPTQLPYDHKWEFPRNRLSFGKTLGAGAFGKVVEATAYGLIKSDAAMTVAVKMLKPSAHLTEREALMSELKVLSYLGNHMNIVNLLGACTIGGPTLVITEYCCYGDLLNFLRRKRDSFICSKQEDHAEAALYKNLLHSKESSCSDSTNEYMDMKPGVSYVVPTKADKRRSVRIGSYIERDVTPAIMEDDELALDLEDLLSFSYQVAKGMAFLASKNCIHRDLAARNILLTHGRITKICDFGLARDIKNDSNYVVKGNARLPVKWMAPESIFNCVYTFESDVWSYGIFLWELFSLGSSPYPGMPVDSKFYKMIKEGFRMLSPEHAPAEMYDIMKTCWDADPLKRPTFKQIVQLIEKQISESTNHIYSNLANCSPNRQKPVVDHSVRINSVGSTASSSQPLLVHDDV
UniProt P36888, 571-993 limits assumed: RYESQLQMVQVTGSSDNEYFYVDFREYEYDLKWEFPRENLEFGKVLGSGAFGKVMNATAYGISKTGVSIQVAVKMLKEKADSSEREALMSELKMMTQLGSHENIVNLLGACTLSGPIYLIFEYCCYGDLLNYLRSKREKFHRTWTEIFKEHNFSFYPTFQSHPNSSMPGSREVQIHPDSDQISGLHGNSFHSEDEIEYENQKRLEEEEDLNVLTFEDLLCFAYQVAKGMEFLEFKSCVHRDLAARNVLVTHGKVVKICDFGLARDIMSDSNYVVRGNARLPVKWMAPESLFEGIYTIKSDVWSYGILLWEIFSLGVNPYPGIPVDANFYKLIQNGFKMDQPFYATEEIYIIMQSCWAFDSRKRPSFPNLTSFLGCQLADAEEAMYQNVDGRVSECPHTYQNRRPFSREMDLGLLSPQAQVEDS
UniProt P35916, 725-1298 isoform 1 limits assumed: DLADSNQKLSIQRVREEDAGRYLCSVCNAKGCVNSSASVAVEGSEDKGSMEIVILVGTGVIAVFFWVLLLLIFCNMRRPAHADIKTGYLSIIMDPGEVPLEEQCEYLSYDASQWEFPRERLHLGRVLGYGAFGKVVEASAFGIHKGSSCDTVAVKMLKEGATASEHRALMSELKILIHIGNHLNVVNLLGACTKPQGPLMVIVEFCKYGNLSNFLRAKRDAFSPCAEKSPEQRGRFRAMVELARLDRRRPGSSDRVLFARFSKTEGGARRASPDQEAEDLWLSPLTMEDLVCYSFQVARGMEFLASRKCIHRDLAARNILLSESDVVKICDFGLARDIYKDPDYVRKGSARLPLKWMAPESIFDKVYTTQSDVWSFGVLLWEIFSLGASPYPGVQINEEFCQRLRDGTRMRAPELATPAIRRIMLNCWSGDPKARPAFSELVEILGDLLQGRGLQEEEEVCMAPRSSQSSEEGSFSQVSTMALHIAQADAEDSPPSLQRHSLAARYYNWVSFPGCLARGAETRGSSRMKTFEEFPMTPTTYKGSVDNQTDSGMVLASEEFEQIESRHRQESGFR

For one assay, the target named is c-Kit kinase (Homo sapiens, UniProt P10721). Kind of assay: c-Kit AlphaScreen kinase assay.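 Note: c-Kit kinase phosphorylating biotinylated poly(Glu,Tyr), ATP near its KM, 1 h reaction at ambient temperature, AlphaScreen chemiluminescence with streptavidin donor and anti-phosphotyrosine acceptor beads, 10-point inhibitor titration.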 The following applies: read-out: c-Kit IC50; Table 4, inhibition as IC50 class. It is filed as biochemical.
The target of assay [1] is Flt-3 (baculovirus expressed human Flt-3 kinase domain R571-S993) (Homo sapiens, UniProt P36888). The following applies: read-out: flt3 IC50; Table 4, inhibition as IC50 class.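 Note: Luciferase-coupled chemiluminescent kinase assay, activity read as percent ATP left after a 3 h reaction at room temperature, ATP near KM, 10-point dose-response.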
The target of assay [2] is Flt-4 (baculovirus expressed human Flt-4 kinase domain D725-R1298) (Homo sapiens, UniProt P35916). Kind of assay: flt-4 Alphascreen Tyrosine Kinase assay.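 Note: AlphaScreen chemiluminescence read-out of biotinylated poly(Glu,Tyr) 4:1 phosphorylation via streptavidin donor and PY100 anti-phosphotyrosine acceptor beads, ATP near KM, 1 hr kinase reaction, 10-point dose-response.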 It is filed as biochemical. As to conditions: read-out: flt4 IC50; Table 4, inhibition as IC50 class.

As a reminder, the IC50 is the concentration that inhibits the measured activity by half. For `COc1cc2c(Oc3ccc(NC(=O)C(=O)NCCc4c(Br)cccc4OC)cc3F)ccnc2cc1OCC1CCNCC1`, the IC50 (at c-Kit kinase; in assay [1]; in assay [2]) was less than 50 nM throughout.

For `COc1cc2c(Oc3ccc(NC(=O)C(=O)NCc4ccc(F)cc4)cc3F)ccnc2cc1OCC1CCNCC1`, the IC50 (on c-Kit kinase; in assay [1]; in assay [2]) was less than 50 nM each time.

Take `COc1cccc(CNC(=O)C(=O)Nc2ccc(Oc3ccnc4cc(OCC5CCNCC5)c(OC)cc34)c(F)c2)c1`: the figures for the IC50 (on c-Kit kinase; in assay [1]; in assay [2]) were less than 50 nM, less than 50 nM and 50 to 500 nM, respectively.

As for `COc1ccc(CNC(=O)C(=O)Nc2ccc(Oc3ccnc4cc(OCC5CCNCC5)c(OC)cc34)c(F)c2)cc1`, the IC50 at c-Kit kinase is less than 50 nM; in assay [2], 50 to 500 nM.

Consider `COc1cc2c(Oc3ccc(NC(=O)C(=O)NCCc4ccccc4Br)cc3F)ccnc2cc1OCC1CCNCC1`, for which the IC50 (at c-Kit kinase; in assay [1]; in assay [2]) was less than 50 nM each time.

Turning to `COc1cc2c(Oc3ccc(NC(=O)C(=O)NCc4ccccc4C(F)(F)F)cc3F)ccnc2cc1OCC1CCNCC1`, the IC50 (on c-Kit kinase; in assay [1]; in assay [2]) was less than 50 nM in each case.

`COc1cc2c(Oc3ccc(NC(=O)C(=O)NCc4ccc(C(F)(F)F)cc4)cc3F)ccnc2cc1OCC1CCNCC1`: the IC50 was 50 to 500 nM at c-Kit kinase and less than 50 nM in assay [2].

In the case of `COc1cc2c(Oc3ccc(NC(=O)C(=O)NC[C@H](C)c4ccccc4)cc3F)ccnc2cc1OCC1CCNCC1`, the IC50 was less than 50 nM on c-Kit kinase, 50 to 500 nM in assay [1] and less than 50 nM in assay [2].

In the case of `COc1cc2c(Oc3ccc(NC(=O)C(=O)NCc4ccc(C(F)(F)F)cc4)cc3F)ccnc2cc1OCC1CCN(C)CC1`, the IC50 (on c-Kit kinase; in assay [2]) was 50 to 500 nM in each case.

In the case of `COc1cc2c(Oc3ccc(NC(=O)C(=O)NCc4ccccc4F)cc3F)ccnc2cc1OCC1CCNCC1`, the IC50 on c-Kit kinase is 50 to 500 nM; in assay [2], less than 50 nM.

These data come from US8476298B2 (Exelixis, Inc., priority 2003, dated 2013).
